Assay results from patent US20130131178A1, “USE OF OXALOACETATE IN THE TREATMENT OF ISCHAEMIA” (UNIVERSIDADE DE SANTIAGO DE COMPOSTELA, priority 2010, published 2013).
At least one compound was matched to its structure with a doubt left.

Tests used:
Assay type in all cases: in vivo, male Sprague-Dawley (SD) rats
[1] = test system: blood glutamate levels; test: Effect of oxaloacetate administration on blood glutamate and aspartate levels in healthy animals
Description: The oxaloacetate used (Sigma-Aldrich, Ref, 171263, 95%) was dissolved in saline solution to a concentration of 10 mg/mL and the pH adjusted to 7.4. […]
(§1) The study protocols for male Sprague-Dawley (SD) rats (Charles River Laboratories; France) weighing between 300 and 350 g were approved by the Animal Use and Care Committee at the Hospital de Santiago de Compostela.
Anaesthesia was induced by inhalation of 5% sevoflurane in a mixture of nitrous oxide and oxygen (70/30). A rectal temperature of 37.5° C. was maintained. Glucose levels (180-220 mg/dL) were analysed prior to the intervention.
(§2) Aspartate and glutamate levels in blood were analysed according to the method described in the following reference (White, J. A., R. J. Hart, and J. C. Fry, An evaluation of the Waters Pico-Tag system for the amino-acid analysis of food materials. J Automat Chem, 1986. 8(4): p. 170-7).
Likewise, no changes in aspartate levels were observed (FIG. 1b).
This increase in aspartate levels confirms that glutamate is being metabolised by the enzyme GOT as a result of oxaloacetate treatment.
The […] and aspartate levels in blood were established in a control group treated with saline.

[2] = test system: blood glutamate levels; test: Effect of oxaloacetate on blood glutamate levels in an animal model of focal ischaemia (MCAO); settings: 3.5 mg/100 g IV 90 minutes post-occlusion, 24 hours post-occlusion
Description: The oxaloacetate used (Sigma-Aldrich, Ref, 171263, 95%) was dissolved in saline solution to a concentration of 10 mg/mL and the pH adjusted to 7.4. As the average weight of the experimental animals was 325 g and the dose administered was 3.5 mg/100 g body weight, each animal received an average volume of 1.2 mL of 10 mg/mL oxaloacetate.
as §1
Anaesthesia was induced by inhalation of 5% sevoflurane in a mixture of nitrous oxide and oxygen (70/30). A rectal temperature of 37.5° C. was maintained. Glucose levels (180-220 mg/dL) were analysed prior to the intervention. […]
as §2
Two groups were designed: an MCAO group treated with saline (control group) and an MCAO group treated with 3.5 mg/100 g oxaloacetate IV 90 minutes post-occlusion. The blood glutamate levels and infarct and oedema volumes were determined in both groups. […]

[3] = test system: Middle cerebral artery occlusion (MCAO) model of cerebral ischaemia; test: Infarct and oedema volumes by magnetic resonance imaging in the MCAO model of cerebral ischaemia; settings: 3.5 mg/100 g IV 90 minutes post-occlusion, compared with the control group on day 3
Description: The oxaloacetate used (Sigma-Aldrich, Ref, 171263, 95%) was dissolved in saline solution to a concentration of 10 mg/mL and the pH adjusted to 7.4. As the average weight of the experimental animals was 325 g and the dose administered was 3.5 mg/100 g body weight, each animal received an average volume of 1.2 mL of 10 mg/mL oxaloacetate. The study protocols for male Sprague-Dawley (SD) rats (Charles River Laboratories; France) weighing between 300 and 350 g were approved by the Animal Use and Care Committee at the Hospital de Santiago de Compostela. Anaesthesia was induced by inhalation of 5% sevoflurane in a mixture of nitrous oxide and oxygen (70/30). A rectal temperature of 37.5° C. was maintained. Glucose levels (180-220 mg/dL) were analysed prior to the intervention. Middle cerebral artery occlusion (MCAO) was used as a model of cerebral ischaemia, as described in the literature (Longa, E. Z., et al., Reversible middle cerebral artery occlusion without craniectomy in rats. Stroke, 1989. 20(1): p. 84-91). […] The infarct and oedema volumes were determined by magnetic resonance imaging. […] The blood glutamate levels and infarct and oedema volumes were determined in both groups. […]

[4] = test system: Middle cerebral artery occlusion (MCAO) model of cerebral ischaemia; test: Somatosensory test in the MCAO model; settings: 3.5 mg/100 g IV 90 minutes post-occlusion, day 7, versus control group

O=C(O)CC(=O)C(=O)O [oxaloacetate]
changes in aspartate levels ([1]; 1.5 mg/100 g IV): no changes | changes in blood glutamate levels ([1]; 1.5 mg/100 g IV, after 3 hours): no changes | aspartate levels ([1]; 3.5 mg/100 g IV, two and three hours after treatment): concomitant increase | duration of the decrease in serum glutamate levels ([1]; 3.5 mg/100 g IV, up to three hours post-administration): maintained up to three hours post-administration | blood glutamate levels [2]: returned to basal | oedema volume [3]: no increase | somatosensory test score (scale of 0 to 4, 4 = greater somatosensory alterations) [4]: higher score than the control group
